# According to PubChem BioAssay AID1745846 (National Center for Advancing Translational Sciences (NCATS), 2022):
# About 30 (2%) of roughly 1,400 compounds were called active. Inconclusive results (about 15%) are left out. Calls come from the whole dose curve; as a rule, active = well fitted inhibition curve with a large enough effect; inconclusive = small, poorly fitted or top-dose-only effect; inactive = flat fitted curve, though single readings scatter. Some of the results follow.
# Experiment: Firefly Luciferase Counterscreen for Inhibitors of ATXN expression
# Conditions: luminescence; series mostly up to 57.5 µM; activity change, negative = inhibition: at the top concentration
# Summary of the method: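 Recombinant firefly luciferase at 10 nM final in 50 mM Tris pH 7.5, 10 mM MgCl2, 0.05% BSA, 0.01% Tween20 with substrate; compounds up to 57 uM final, 10 min room temperature, end-point luminescence. Buffer-only wells define 100% inhibition.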
# % is set by controls: 0 for no effect and ±100 for the full control effect.
row,Compound,"activity change, negative = inhibition"
1,CCc1ccc(CNC(=O)C2CCN(c3nnc(C)c4c(C)n(-c5ccc(C)cc5)nc34)CC2)cc1,inactive: -2.21%
2,CCOc1ccc2[nH]c3c(NCCc4ccc(OC)c(OC)c4)ncnc3c2c1,inactive: -10.5%
3,COC(=O)c1cn(NC(=O)c2cc([N+](=O)[O-])ccc2F)c(=O)c2ccccc12,inactive: -8.85%
4,Cc1ccc(O)c(CNCCNCc2cc(C)ccc2O)c1,inactive: 1.05%
5,CCC(C)n1cnc2c(c1=O)c1nc3ccccc3nc1n2-c1ccc2c(c1)OCCO2 (stereo not given),inactive: 0.0963%
6,COc1ccc(-c2n[nH]c(C)c2-c2cnn(-c3ccccc3)c2)c(O)c1C,inactive: -6.79%
7,CCCCOc1ccc(C(=O)NNC(=O)c2cnccn2)cc1OC,inactive: -3.21%
8,COc1ccc(-c2n(CC(=O)OC3CC(C)CCC3C(C)C)c3ccccc3[n+]2C)cc1 (stereo not given),inactive: 2.95%
9,O=C(Cn1c(=O)n(CC(=O)NCc2ccccc2)c2ccccc21)NCc1ccccc1,inactive: 2.51%
10,Nc1nc(NCCc2ccccc2)nc(NCc2ccccc2)c1[N+](=O)[O-],inactive: 0.017%
11,COc1cnc(-c2ccccn2)nc1NC(C)C,inactive: -10.4%
12,Cc1cc(N/N=C/c2ccccc2[N+](=O)[O-])nc(-n2nc(C)cc2C)n1,inactive: -3.89%
13,COc1cccc(/C=N/NC(=O)c2c(C)nc3ccc(Cl)cn23)c1O,inactive: -11.2%
14,Cc1[nH]c(-c2ccc(F)cc2)cc1C(=O)N1CCN(c2ccc(Cl)cc2)CC1,inactive: -0.881%
15,CCCC(=O)NC(c1ccccc1)c1ccc2cccnc2c1O (stereo not given),inactive: -0.137%
16,COc1ccc2c(c1)CC(N1CCN(C)CC1)c1cc(OC)ccc1S2 (stereo not given),inactive: 2.8%
17,COc1cc(C=CC(=O)c2cc(OC)c(OC)c(OC)c2)cc(OC)c1OC,inactive: 5.64%
18,CCOc1ccccc1C(=O)Nc1ccc2nc(N3CCN(c4ncccn4)CC3)cc(C)c2c1,inactive: 1.06%
19,COc1ccc(N2CCN(c3nc(NCCc4ccc(OC)c(OC)c4)nc(OC)n3)CC2)cc1,inactive: -15.5%
20,CC(C)NC1CCC(Nc2ccnc3cc(Cl)ccc23)CC1 (stereo not given),inactive: -0.16%
21,COc1ccc(CN(C)C(=O)c2cccc(NC(=O)CC3SC(N4CCCCC4)=NC3=O)c2)c(OC)c1 (stereo not given),inactive: -10.8%
22,CC(C)[C@H](NC(=O)c1ccc(C(C)(C)C)cc1)C(=O)N1CCN(Cc2ccc3c(c2)OCO3)CC1,inactive: -0.972%
23,Clc1ccc(C[n+]2cc(-c3ccccc3)n3c2CCCCC3)c(Cl)c1,inactive: 5.15%
24,CCc1nc2c(OCCOc3ccc(F)cc3)cccn2c1N(C)C(=O)c1ccco1,inactive: -1.23%
25,CCCCC(=O)OCC(=O)C1(O)Cc2c(O)c3c(c(O)c2C(OC2CC(NC(=O)C(F)(F)F)C(O)C(C)O2)C1)C(=O)c1c(OC)cccc1C3=O (stereo not given),inactive: -11.2%

row,Compound,"activity change, negative = inhibition"
1,CCCCCn1c(=O)c2ccccc2n2c(CCl)nnc12,inactive: -2.32%
2,CN(C)CCCN(C(=O)CCc1ccccc1)c1nc2ccc(Br)cc2s1,inactive: 1.42%
3,CCCCn1c(SCc2ncc(-c3ccccc3)o2)nc2cc(S(N)(=O)=O)ccc21,inactive: -13.5%
4,c1cnc2c(c1)ccc1cccnc12,inactive: -2.17%
5,NC(N)=N/N=C/c1ccc2cccc(OCc3ccccc3)c2n1,inactive: -14.9%
6,CCN(CC)c1nc(-c2ccccn2)nc(-c2ccccc2)c1C#N,inactive: -0.0048%
7,Cc1nn(Cc2c(F)c(F)c(F)c(F)c2F)c(C)c1NC(=O)c1ccc(COc2ccc(Cl)cc2Cl)o1,inactive: -10.4%
8,Cc1ccc(NC(=O)CCC(=O)c2cc(C)sc2C)nc1,inactive: -2.63%
9,CCC1(c2ccccc2)ON(c2c(Br)cccc2Br)C1=O (stereo not given),inactive: -0.992%
10,CCc1nnc(NC(=O)c2ccc(S(=O)(=O)N(C)Cc3ccccc3)cc2)o1,inactive: -15.9%
11,Oc1ccc(Cl)c2cccnc12,inactive: -5.94%
12,CCC1(O)C(=O)OCc2c1cc1n(c2=O)Cc2cc3cc(O)ccc3nc2-1 (stereo not given),inactive: -0.433%
13,CN(Cc1ccccc1)C(=O)c1ccc(NC(=O)C2CCN(C(=O)OC(C)(C)C)CC2)cc1,inactive: -1.39%
14,CN(C)CCNc1ncnc2c1sc1nc(N3CCCC3)c3c(c12)CC(C)(C)OC3,inactive: -3.37%
15,CCCCc1ccc(NC(=O)N2CCN(c3cc(C)nc4ccccc34)CC2)c(C)c1,inactive: 8.86%
16,Oc1c(C(Nc2ccccn2)c2ccccn2)ccc2cccnc12 (stereo not given),inactive: -6.3%
17,COc1ccc(C2CC(c3ccccc3Cl)=NN2c2ccc(S(N)(=O)=O)cc2)cc1 (stereo not given),inactive: -1.62%
18,O=C(Nc1ccc(CN2CCCCC2)cc1)Nc1ccc(Br)cc1Cl,inactive: -1.96%
19,CSCc1nnc(NC(=O)c2ccc(S(=O)(=O)N3CCCCC3C)cc2)o1 (stereo not given),inactive: -18.2%
20,COc1ccc(-c2nn(-c3ccccc3)cc2C(=O)NC(=S)NNC(=O)c2ccncc2)cc1,inactive: -14.7%
21,Cc1sc2cc3c(c(C(=O)c4ccccc4)[n+]2c1C)-c1cccc2cccc-3c12,inactive: -4.87%
22,COc1cccc(/C=N/NC(=O)c2cc3c(OC)cccc3[nH]2)c1O,inactive: -7.79%
23,CC(C)c1ccc2c(c1)C(N1CCNCC1)Cc1ccc(F)cc1S2 (stereo not given),inactive: 10.3%
24,Cc1onc(-c2c(Cl)cccc2Cl)c1C(=O)N/N=C(\N)COc1ccc(Cl)cc1,inactive: 0.402%
25,COc1ccccc1N1CCN(c2ccnc3cc(Cl)ccc23)CC1,inactive: -1.87%

# As entered above.
# In activity change, negative = inhibition, COc1ccc(C2CC(c3ccccc3Cl)=NN2c2ccc(S(N)(=O)=O)cc2)cc1 (stereo not given) is entered as inactive: -1.62%
# In activity change, negative = inhibition, CN(C)CCCN(C(=O)CCc1ccccc1)c1nc2ccc(Br)cc2s1 is entered as inactive: 1.42%
